From patent US20090203644A1, “Compositions for treating and/or preventing diseases characterized by the presence of metal ions” (GrenPharma LLC, priority 2004, published 2009)
Some of these results come from one statement about several compounds together. For some of these results: At least one compound was matched to its structure with a doubt left.

Key:
A-beta antigen = test system: A-beta antigen; set-up: species or system human
[1] = pH 7.1

Compound	Total Extracted (A-beta antigen) [fmol]	time for which solutions were free of precipitate or colloidal suspensions / stable after preparation [1] [h]
C[Si](Cl)(Cl)CC[Si](C)(Cl)Cl [compound 1042, 1,2-(methyldichlorosilyl)ethane]	11.2 to 14.0	
C[Si](Cl)(Cl)CCC#N [CEMS, 2-cyanoethylmethyldichlorosilane]	1.4 to 6.0	≥ 16
triethoxysilylbutyronitrile [TESB]		≥ 16
